{"source": "PubChem BioAssay AID1671195 – Yale University | 2021", "test": "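Genes whose knockdown alters LDL uptake in liver cancer cells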 (primary screen)", "system": "human Huh7 hepatoma cells", "knock-down reagent": "siRNA pool against human genes, 18 nM", "timing": "about 2 to 2.5 days of knockdown, then 8 h LDL uptake", "challenge": "DiI-labelled LDL at 30 µg/ml for 8 h, in lipoprotein-deficient serum medium", "measurement": "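Per-cell DiI-LDL intensity by automated imaging; well means scaled to the plate median and given as a robust z-score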", "direction": "robust z-score: higher = more LDL uptake after knockdown", "rule for the call": "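a gene counts as active if at least two replicate z-scores exceed ±2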", "note": "Here is a random part of about 22,000 reagents tested. Of all reagents, about 1,510 (6.9%) are marked active. 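Active includes knockdowns raising or lowering LDL uptake; positive z-scores mean more uptake, negative mean less.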"}
{"gene symbol":"POLR3H","robust z-score, replicate 1":0.914,"robust z-score, replicate 2":2.35,"robust z-score, replicate 3":2.75,"Outcome":"active"}
{"gene symbol":"OR14I1","robust z-score, replicate 1":2.28,"robust z-score, replicate 2":2.08,"robust z-score, replicate 3":3.73,"Outcome":"active"}
{"gene symbol":"AKAP8L","robust z-score, replicate 1":-1.64,"robust z-score, replicate 2":-1.62,"robust z-score, replicate 3":-1.86,"Outcome":"inactive"}
{"gene symbol":"PLAGL2","robust z-score, replicate 1":-1.15,"robust z-score, replicate 2":-1.23,"robust z-score, replicate 3":-1.14,"Outcome":"inactive"}
{"gene symbol":"ABCC2","robust z-score, replicate 1":-0.317,"robust z-score, replicate 2":-0.301,"robust z-score, replicate 3":-0.723,"Outcome":"inactive"}
{"gene symbol":"SLC75A1","robust z-score, replicate 1":-0.435,"robust z-score, replicate 2":-0.0426,"robust z-score, replicate 3":-0.276,"Outcome":"inactive"}
{"gene symbol":"VTA1","robust z-score, replicate 1":0.627,"robust z-score, replicate 2":-0.689,"robust z-score, replicate 3":-0.291,"Outcome":"inactive"}
{"gene symbol":"STXBP5L","robust z-score, replicate 1":1.34,"robust z-score, replicate 2":0.581,"robust z-score, replicate 3":0.587,"Outcome":"inactive"}
{"gene symbol":"LOC441577 (retired record)","robust z-score, replicate 1":-1.05,"robust z-score, replicate 2":-0.39,"robust z-score, replicate 3":-0.639,"Outcome":"inactive"}
{"gene symbol":"OTOR","robust z-score, replicate 1":1.07,"robust z-score, replicate 2":1.59,"robust z-score, replicate 3":-0.126,"Outcome":"inactive"}
{"gene symbol":"DNAJA4","robust z-score, replicate 1":-0.539,"robust z-score, replicate 2":-0.0308,"robust z-score, replicate 3":-0.215,"Outcome":"inactive"}
{"gene symbol":"CBX4","robust z-score, replicate 1":1.28,"robust z-score, replicate 2":0.16,"robust z-score, replicate 3":1.33,"Outcome":"inactive"}
{"gene symbol":"LSM3","robust z-score, replicate 1":-0.397,"robust z-score, replicate 2":-0.342,"robust z-score, replicate 3":-0.209,"Outcome":"inactive"}
{"gene symbol":"MAST1","robust z-score, replicate 1":0.975,"robust z-score, replicate 2":0.577,"robust z-score, replicate 3":-0.211,"Outcome":"inactive"}
{"gene symbol":"OR5H14","robust z-score, replicate 1":0.907,"robust z-score, replicate 2":-0.216,"robust z-score, replicate 3":-0.0433,"Outcome":"inactive"}
{"gene symbol":"ARHGEF17","robust z-score, replicate 1":0.656,"robust z-score, replicate 2":1.99,"robust z-score, replicate 3":-0.947,"Outcome":"inactive"}
{"gene symbol":"SSBP3","robust z-score, replicate 1":0.76,"robust z-score, replicate 2":0.9,"robust z-score, replicate 3":0.519,"Outcome":"inactive"}
{"gene symbol":"FAM3B","robust z-score, replicate 1":-0.671,"robust z-score, replicate 2":-0.622,"robust z-score, replicate 3":-0.495,"Outcome":"inactive"}
{"gene symbol":"ZNF573","robust z-score, replicate 1":1.05,"robust z-score, replicate 2":-0.166,"robust z-score, replicate 3":0.0662,"Outcome":"inactive"}
{"gene symbol":"LOC440598 (retired record)","robust z-score, replicate 1":0.349,"robust z-score, replicate 2":-0.244,"robust z-score, replicate 3":-0.0883,"Outcome":"inactive"}
{"gene symbol":"ODAD1","robust z-score, replicate 1":-0.985,"robust z-score, replicate 2":-0.554,"robust z-score, replicate 3":-0.699,"Outcome":"inactive"}
{"gene symbol":"SEC24B","robust z-score, replicate 1":-0.368,"robust z-score, replicate 2":0.0682,"robust z-score, replicate 3":-1.06,"Outcome":"inactive"}
{"gene symbol":"TRIM10","robust z-score, replicate 1":-0.722,"robust z-score, replicate 2":-0.514,"robust z-score, replicate 3":-0.173,"Outcome":"inactive"}
{"gene symbol":"MAP10","robust z-score, replicate 1":0.252,"robust z-score, replicate 2":1.56,"robust z-score, replicate 3":1.55,"Outcome":"inactive"}

Called active, of those listed so far:
{"gene symbol":"POLR3H","robust z-score, replicate 1":0.914,"robust z-score, replicate 2":2.35,"robust z-score, replicate 3":2.75,"Outcome":"active"}
{"gene symbol":"OR14I1","robust z-score, replicate 1":2.28,"robust z-score, replicate 2":2.08,"robust z-score, replicate 3":3.73,"Outcome":"active"}
